# This is one part of the list. The main result of the screen is listed elsewhere. These columns were measured beside it and carry no call. Compounds called inactive in the main read-out are mostly missing here. Potencies come from curve fits of mixed quality, noted in brackets.
# Test: IkB Signaling
# Settings: ABC-DLBCL IkBa-CBG/CBR dual luciferase ratio (green luciferase fused to IkBa over red control in OCI-Ly3 lymphoma cells), 4 h
# In short: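 Curves were fitted separately to fusion (green), unfused (red) and ratio luminescence, then classed by r2, magnitude and activity. Cells: OCI-Ly3, 4 h compound plus doxycycline at 37C; 10 uM MG-132 defined full response.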
# [1] = measured here: control luc red channel unless noted
structure (smiles),measurement,setting,value
COCc1nc2ccccc2n1Cc1ccc(C(C)(C)C)cc1,AC50,[1],"31.6 µM [falling, single point]"
CCCCN(C)CC(O)Cn1cc(/C=C/C(=O)c2ccc(Br)cc2)c2ccccc21 (stereo not drawn),AC50,[1],"12.6 µM [falling, partial curve]"
CC(=O)c1cccc(NC(=O)c2sc(-n3nc(C)c(Cc4ccccc4)c3C)nc2C)c1,AC50,[1],"0.1 µM [falling, full curve, poor fit]"
Cc1cc(=O)[nH]c2nnc(SCc3ccc(Cl)cc3Cl)n12,AC50,[1],"3.16 µM [rising, partial curve, poor fit]"
Cc1ccc2c(CNC3CCCCC3)c(C(=O)O)n(Cc3ccc(F)cc3)c2c1,AC50,[1],"20 µM [falling, single point]"
COCCNC(=O)c1ccc2c(c1)N(Cc1cc(C)ccc1C)C(=O)c1ccccc1S2=O (stereo not drawn),AC50,[1],"31.6 µM [falling, partial curve, poor fit]"
Cc1ccc2nc(COc3cccc(NC(=O)Nc4ccc(C)c(Cl)c4)c3)cc(=O)n2c1,AC50,[1],"2.51 µM [falling, full curve]"
COc1cccc(-c2cc(C(=O)NCCc3ccc(OC)c(OC)c3)no2)c1,AC50,[1],"1.58 µM [rising, full curve, poor fit]"
O=C(Nc1ccc(F)c(Cl)c1)c1ccc2c(Cl)c3c(nc2c1)CCCC3,AC50,[1],"0.0501 µM [falling, full curve]"
O=C(N1CCN(Cc2ccc3c(c2)OCO3)CC1)C12CC3CC(CC(C3)C1)C2,AC50,[1],"25.1 µM [falling, partial curve]"
Cc1cc(C)cc(-n2c(SCC(=O)Nc3ccccc3)nc3c(oc4ccccc43)c2=O)c1,AC50,[1],"12.6 µM [falling, partial curve]"
COc1ccc(-c2noc(CSc3ccccc3)n2)cc1OC,AC50,[1],"39.8 µM [falling, single point]"
Cc1ccc(-n2nc3c(=O)n(C(C)C(=O)NCc4ccc(OC(C)C)cc4)nc(C)c3c2C)cc1 (stereo not drawn),AC50,[1],"12.6 µM [falling, partial curve]"
COc1ccc2c(CNCc3cccs3)c(C(=O)O)n(Cc3ccc(F)cc3)c2c1,AC50,[1],"10 µM [falling, partial curve]"
CC(C)Cn1cc(NC(=O)N2CCN(c3ccc(F)cc3)CC2)c2ccccc2c1=O,AC50,[1],"39.8 µM [falling, single point]"
CC(=O)c1ccc(NC(=O)CSC2=Nc3ccccc3N=C(c3ccc(F)cc3)C2)cc1,AC50,[1],"25.1 µM [falling, single point]"
COc1cc(OC)cc(-c2nc3nc(C)c(CCC(=O)Nc4cc(C)cc(C)c4)c(C)n3n2)c1,AC50,[1],"12.6 µM [falling, partial curve]"
O=C(c1ccc2c(Cl)c3c(nc2c1)CCCC3)N1CCN(c2ccc(Cl)cc2)CC1,AC50,[1],"25.1 µM [falling, single point]"
O=C(Nc1nc2c(F)cc(F)cc2s1)c1ccc(S(=O)(=O)N2CCc3ccccc32)cc1,AC50,[1],"0.794 µM [falling, full curve]"
CCN1C(C(=O)c2ccccc2)=C(OC(=O)COc2ccc(C)cc2)c2ccccc2S1(=O)=O,AC50,[1],"12.6 µM [falling, partial curve]"
COC(=O)c1ccc(N2C(=O)Cc3cc(OC)c(OC)cc3C2c2ccc(F)cc2)cc1 (stereo not drawn),AC50,[1],"20 µM [falling, partial curve]"
COc1ccc(CCCc2nnc(SCC(=O)Nc3cccc(F)c3C)o2)cc1,AC50,[1],"20 µM [falling, partial curve]"
CCOCCc1nn2c(=O)cc(COC(=O)c3ccccc3OC)nc2s1,AC50,[1],"15.8 µM [falling, partial curve]"
CCCC(=O)Nc1cccc(OCc2cc(=O)n3cccc(C)c3n2)c1,AC50,[1],"20 µM [falling, partial curve]"
CCn1c(C)c(C)c2cc(C(=O)NCC(C)c3ccccc3)ccc21 (stereo not drawn),AC50,[1],"39.8 µM [falling, single point]"
COc1ccc(N(CC(=O)Nc2cccc(Cl)c2)S(=O)(=O)c2c(C)[nH]c(=O)[nH]c2=O)cc1,AC50,[1],"25.1 µM [falling, single point]"
Cc1cccc(OCc2nc(CC(=O)Nc3ccc(Cl)cc3)cs2)c1,AC50,[1],"6.31 µM [falling, single point]"
Cc1cccc(C)c1-n1ncc(C(=O)NCCCN2CCC(C)CC2)c1C1CCN(C(=O)OC(C)(C)C)CC1,AC50,[1],"20 µM [falling, partial curve]"
Cc1cc(Nc2ccc(Br)cc2)nc(C)n1,AC50,[1],"3.16 µM [rising, partial curve]"
CCOC(=O)c1cnc2c(ccc3ccccc32)c1Nc1ccc(C(C)=O)cc1,AC50,[1],"10 µM [falling, partial curve]"
O=C(Nc1ccc(N2CCCC2)c(Cl)c1)c1ccc(Br)o1,AC50,[1],"12.6 µM [falling, partial curve]"
COc1cccc(CSc2nc3ccncc3n2CC(=O)Nc2ccc(OC)c(OC)c2OC)c1,AC50,[1],"25.1 µM [falling, single point]"
O=S(=O)(c1ccc(Cl)cc1)c1nc(-c2cccs2)oc1N1CCCCC1,AC50,[1],"39.8 µM [falling, partial curve]"
Cc1cc(C)nc(-n2nc(C)c3c2N(Cc2ccccc2F)C(=O)CC3c2ccc(Cl)cc2)n1 (stereo not drawn),AC50,[1],"15.8 µM [falling, partial curve]"
CCOC(=O)c1sc2ccccc2c1S(=O)(=O)NCc1ccccc1OC,AC50,[1],"31.6 µM [falling, single point]"
Cn1ncc2c(N3CCN(c4ccc(F)cc4)CC3)ncnc21,AC50,[1],"39.8 µM [falling, single point]"
COc1cc(-c2nc3sccn3c2Nc2c(C)cccc2C)ccc1O,AC50,measured here: IkB-luc green channel,"31.6 µM [rising, partial curve]"
same,AC50,measured here: control luc red channel,"25.1 µM [rising, single point]"
COc1ccc2nc3oc(C(=O)N4CCC(C(N)=O)CC4)cc3cc2c1,AC50,[1],"6.31 µM [falling, partial curve]"
CC(C)(C)c1ccc(C(=O)CSc2ncn[nH]2)cc1,AC50,[1],"25.1 µM [falling, partial curve]"
CC(=O)N1CCCC1c1nc2ccccc2n1Cc1ccccc1Cl (stereo not drawn),AC50,[1],"7.94 µM [falling, partial curve]"
CCS(=O)(=O)N1CCCc2cc(C(=O)Nc3cccc(C(C)=O)c3)ccc21,AC50,[1],"25.1 µM [falling, single point]"
COc1cc(NC(=O)c2cccc(Cl)c2Cl)ccc1NC(=O)c1cc2ccccc2o1,AC50,[1],"0.794 µM [falling, full curve]"
CCOc1ccc(C(=O)C2CCN(CC(=O)Nc3ccccc3N3CCOCC3)CC2)cc1,AC50,[1],"25.1 µM [falling, partial curve]"
CCC(=O)N1CCc2cc(Br)cc(S(=O)(=O)CCC(=O)Nc3cccc(Cl)c3)c21,AC50,[1],"31.6 µM [falling, single point]"
Clc1ccc(-c2nnn3c2nc(NC2CCCCC2)c2ccccc23)cc1,AC50,[1],"0.631 µM [falling, full curve]"
CCOc1ccc(C(=O)N(Cc2ccc(C(C)C)cc2)Cc2ccco2)cc1,AC50,[1],"39.8 µM [falling, single point]"
O=C(CCN1c2ccccc2Sc2ccccc21)OCC(=O)N1CCN(C(=O)c2ccco2)CC1,AC50,[1],"25.1 µM [falling, partial curve]"
CCOC(=O)C1CCCCN1C(=O)CCc1c(C)nc2cc(-c3ccccc3)nn2c1C (stereo not drawn),AC50,[1],"1.26 µM [falling, partial curve]"
Cc1ccc(NC(=O)CCCc2nc(-c3ccco3)no2)cc1Cl,AC50,[1],"31.6 µM [falling, partial curve]"
COc1ccc(-c2noc(CCC(=O)N(C)c3cc(Cl)ccc3OC)n2)cc1,AC50,[1],"39.8 µM [falling, single point]"
COc1ccc(NS(=O)(=O)c2ccc(N3CCCCS3(=O)=O)cc2)cc1Cl,AC50,[1],"39.8 µM [falling, partial curve, poor fit]"
CCc1nn(C(CC)C(=O)NCc2ccc(OC)c(OC)c2)c(=O)c2cc3oc(C)cc3n12 (stereo not drawn),AC50,[1],"20 µM [falling, single point]"
Cc1nn(-c2nc(-c3ccccc3)cc(C(F)(F)F)n2)c(C)c1Cl,AC50,[1],"20 µM [falling, partial curve]"
Cc1ccc(OCCSc2nc(-c3ccccc3C)nc3cc(=O)[nH]n23)cc1Cl,AC50,[1],"25.1 µM [falling, partial curve]"
CCCCNC(=O)c1cccc(NC(=O)c2nsc3ccccc23)c1,AC50,[1],"0.1 µM [rising, full curve]"
CCOc1ccc2c(c1)c(=O)c(C(=O)c1ccc3c(c1)OCO3)cn2Cc1ccc(F)cc1,AC50,[1],"20 µM [falling, single point]"
COc1cc(/C=C(\C#N)c2nc3ccc(C)cc3[nH]2)ccc1OCc1ccc(C)cc1,AC50,[1],"15.8 µM [falling, partial curve]"
CCc1ccc(C2C(C(=O)Nc3ccccc3OC)=C(C)Nc3c(C(=O)Nc4ccc(C)cc4)cnn32)cc1 (stereo not drawn),AC50,[1],"2.51 µM [falling, partial curve]"
CCN(C(=O)c1cn(-c2cccc(OC)c2)c(=O)c2ccccc12)c1ccccc1C,AC50,[1],"15.8 µM [falling, partial curve]"
Cc1ccc(C)c(NC(=O)CSc2nccn2-c2cccc(C)c2C)c1,AC50,[1],"25.1 µM [falling, partial curve, poor fit]"
CC(=O)c1cc2c(cc1NC(=O)c1ccc(-n3nc(C)cc3C)cc1)OCO2,AC50,[1],"0.0631 µM [falling, full curve, poor fit]"
O=C(CSc1nnc(-c2ccco2)o1)N1c2ccccc2CCc2ccccc21,AC50,[1],"5.01 µM [falling, partial curve]"

# Part of the list above, reformatted:
structure (smiles)	measurement	setting	value
COc1ccc(N(CC(=O)Nc2cccc(Cl)c2)S(=O)(=O)c2c(C)[nH]c(=O)[nH]c2=O)cc1	AC50	[1]	25.1 µM [falling, single point]
Cc1cccc(OCc2nc(CC(=O)Nc3ccc(Cl)cc3)cs2)c1	AC50	[1]	6.31 µM [falling, single point]
Cc1cccc(C)c1-n1ncc(C(=O)NCCCN2CCC(C)CC2)c1C1CCN(C(=O)OC(C)(C)C)CC1	AC50	[1]	20 µM [falling, partial curve]
